Assay results reported in US11446353B2, “Compositions and methods for the treatment of fungal infections” (priority 2014, dated 2022).

System: Coccidioides posadasii Δcts2/Δard1/Δcts3

## CC/C(=C(\c1ccccc1)c1ccc(OCCN(C)C)cc1)c1ccccc1 [Tamoxifen]
  IC50 values over the course of the experiment: slowly increased
